Article doi:10.1101/2023.09.28.559937
No constants are given. Whether binding was seen depends on the method and setting. In cells and extracts the contact can be indirect. Binding can be weak; no strength is given.

Biological target: HA-Yrt (D. melanogaster) (UniProt Q9VFU8)
Assay: co-IP

binding: binds
Substance: FLAG-tagged full length (FL) Yrt (from UniProt Q9VFU8)
